For this assay, the target named is human ALK3-HA expressed in HEK293T cells (human) (UniProt P36894). Kind of assay: cell surface binding assay on HEK293T cells transfected with human ALK3-HA.

Protein sequences, listed by entry. Tags and fused reporters are not part of them. Residues count along the entry.
UniProt P36894, residues 24-532: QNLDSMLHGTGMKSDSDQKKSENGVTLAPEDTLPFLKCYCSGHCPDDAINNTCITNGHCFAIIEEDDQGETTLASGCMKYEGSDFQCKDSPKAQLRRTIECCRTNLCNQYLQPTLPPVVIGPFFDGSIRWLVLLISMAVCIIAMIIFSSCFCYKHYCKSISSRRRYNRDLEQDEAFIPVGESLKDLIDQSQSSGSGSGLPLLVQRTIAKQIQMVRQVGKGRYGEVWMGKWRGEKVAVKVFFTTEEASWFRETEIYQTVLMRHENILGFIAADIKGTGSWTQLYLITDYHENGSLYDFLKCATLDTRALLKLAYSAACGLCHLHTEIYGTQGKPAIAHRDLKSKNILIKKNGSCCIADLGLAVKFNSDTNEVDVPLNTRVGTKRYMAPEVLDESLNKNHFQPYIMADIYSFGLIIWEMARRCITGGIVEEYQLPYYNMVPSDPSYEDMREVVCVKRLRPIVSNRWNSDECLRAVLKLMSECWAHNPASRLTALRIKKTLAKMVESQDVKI

No constants are given. Whether binding was seen depends on the method and setting. Some entries that bind do so weakly or less than the wild type.

B1: RSPO2^ΔFU (human RSPO2 Furin1 and Furin2 deletion mutant) (ligand, not shown: small tags and cut ends)
chain: GCEVGHWSEWGTCSRNNRTCGFKWGLETRTRQIVKKPVKDTILCPTIAESRRCKMTMRHCP
On to B1, for which the binding result is given as “binds”.

For the origin of these results see patent US20250346890A1, “LEUKEMIA TREATMENT” (Deutsches Krebsforschungszentrum, priority 2019, published 2025).
